Measurements reported in publication PMC9075623.
Results are given in words; binding and its absence hold for the method and conditions named. In cells and extracts the contact can be indirect. Binding can be weak; no strength is given. Sequences can lack the tags named with a protein.

Target: V5-tagged full-length human TSPO^A147T (A147T polymorphism variant) (human)
Assay: co-IP; U87MG cells overexpressing V5-tagged TSPO^WT, TSPO^A147T or pcDNA together with the Myc-tagged partner; IP with V5 antibody, immunoblot for myc and V5

B1: Myc-tagged 14-3-3 protein subunit theta (YWHAQ) (protein, UniProt P27348 1-245)
chain: MEKTELIQKAKLAEQAERYDDMATCMKAVTEQGAELSNEERNLLSVAYKNVVGGRRSAWRVISSIEQKTDTSDKKLQLIKDYREKVESELRSICTTVLELLDKYLIANATNPESKVFYLKMKGDYFRYLAEVACGDDRKQTIDNSQGAYQEAFDISKKEMQPTHPIRLGLALNFSVFYYEILNNPELACTLAKTAFDEAIAELDTLNEDSYKDSTLIMQLLRDNLTLWTSDSAGEECDAAEGAEN
For B1, the binding was “binds”.

B2: Myc-tagged 14-3-3 protein subunit eta (YWHAH) (protein, UniProt Q04917 1-246)
chain: MGDREQLLQRARLAEQAERYDDMASAMKAVTELNEPLSNEDRNLLSVAYKNVVGARRSSWRVISSIEQKTMADGNEKKLEKVKAYREKIEKELETVCNDVLSLLDKFLIKNCNDFQYESKVFYLKMKGDYYRYLAEVASGEKKNSVVEASEAAYKEAFEISKEQMQPTHPIRLGLALNFSVFYYEIQNAPEQACLLAKQAFDDAIAELDTLNEDSYKDSTLIMQLLRDNLTLWTSDQQDEEAGEGN
For B2, the binding was “no binding”.
